Source: PMC8357632
Results are given in words; binding and its absence hold for the method and conditions named. For some of these results: Binding seen in cells or lysates may run through a third protein. Some entries that bind do so weakly or less than the wild type. For some of these results: Tags and fused reporters may be left off the sequences shown.

Key:
[1] = target: T1, Snp1 (S. cerevisiae (endogenous in yeast whole-cell extract)) (UniProt Q00916); assay: cryo-EM structure + cross-linking; ΔBS-A pre-A complex: Prp40 FF domains placed in the EM density as rigid bodies with the help of CXMS (BS3) cross-links
T1 sequence: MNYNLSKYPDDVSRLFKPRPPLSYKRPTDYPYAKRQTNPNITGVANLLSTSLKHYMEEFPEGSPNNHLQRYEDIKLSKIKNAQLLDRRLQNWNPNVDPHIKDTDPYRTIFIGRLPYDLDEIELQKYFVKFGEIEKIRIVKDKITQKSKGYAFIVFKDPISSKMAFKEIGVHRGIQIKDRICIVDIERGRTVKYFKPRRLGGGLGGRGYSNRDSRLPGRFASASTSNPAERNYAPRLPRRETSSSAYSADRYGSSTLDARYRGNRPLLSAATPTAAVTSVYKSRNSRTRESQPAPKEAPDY

[2] = target: T2, Luc7 (S. cerevisiae (endogenous in yeast whole-cell extract)) (UniProt Q07508); assay: as above
T2 sequence: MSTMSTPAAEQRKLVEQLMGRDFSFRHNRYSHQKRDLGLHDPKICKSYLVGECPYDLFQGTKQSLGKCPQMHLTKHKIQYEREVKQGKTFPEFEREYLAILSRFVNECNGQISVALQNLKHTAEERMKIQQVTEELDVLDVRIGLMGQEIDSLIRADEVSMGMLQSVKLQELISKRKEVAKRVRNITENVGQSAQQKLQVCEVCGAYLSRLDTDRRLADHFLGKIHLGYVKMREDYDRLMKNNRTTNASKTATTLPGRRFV

[3] = target: T3, Rse1 (S. cerevisiae (endogenous in yeast whole-cell extract)) (UniProt Q04693); assay: as above
T3 sequence: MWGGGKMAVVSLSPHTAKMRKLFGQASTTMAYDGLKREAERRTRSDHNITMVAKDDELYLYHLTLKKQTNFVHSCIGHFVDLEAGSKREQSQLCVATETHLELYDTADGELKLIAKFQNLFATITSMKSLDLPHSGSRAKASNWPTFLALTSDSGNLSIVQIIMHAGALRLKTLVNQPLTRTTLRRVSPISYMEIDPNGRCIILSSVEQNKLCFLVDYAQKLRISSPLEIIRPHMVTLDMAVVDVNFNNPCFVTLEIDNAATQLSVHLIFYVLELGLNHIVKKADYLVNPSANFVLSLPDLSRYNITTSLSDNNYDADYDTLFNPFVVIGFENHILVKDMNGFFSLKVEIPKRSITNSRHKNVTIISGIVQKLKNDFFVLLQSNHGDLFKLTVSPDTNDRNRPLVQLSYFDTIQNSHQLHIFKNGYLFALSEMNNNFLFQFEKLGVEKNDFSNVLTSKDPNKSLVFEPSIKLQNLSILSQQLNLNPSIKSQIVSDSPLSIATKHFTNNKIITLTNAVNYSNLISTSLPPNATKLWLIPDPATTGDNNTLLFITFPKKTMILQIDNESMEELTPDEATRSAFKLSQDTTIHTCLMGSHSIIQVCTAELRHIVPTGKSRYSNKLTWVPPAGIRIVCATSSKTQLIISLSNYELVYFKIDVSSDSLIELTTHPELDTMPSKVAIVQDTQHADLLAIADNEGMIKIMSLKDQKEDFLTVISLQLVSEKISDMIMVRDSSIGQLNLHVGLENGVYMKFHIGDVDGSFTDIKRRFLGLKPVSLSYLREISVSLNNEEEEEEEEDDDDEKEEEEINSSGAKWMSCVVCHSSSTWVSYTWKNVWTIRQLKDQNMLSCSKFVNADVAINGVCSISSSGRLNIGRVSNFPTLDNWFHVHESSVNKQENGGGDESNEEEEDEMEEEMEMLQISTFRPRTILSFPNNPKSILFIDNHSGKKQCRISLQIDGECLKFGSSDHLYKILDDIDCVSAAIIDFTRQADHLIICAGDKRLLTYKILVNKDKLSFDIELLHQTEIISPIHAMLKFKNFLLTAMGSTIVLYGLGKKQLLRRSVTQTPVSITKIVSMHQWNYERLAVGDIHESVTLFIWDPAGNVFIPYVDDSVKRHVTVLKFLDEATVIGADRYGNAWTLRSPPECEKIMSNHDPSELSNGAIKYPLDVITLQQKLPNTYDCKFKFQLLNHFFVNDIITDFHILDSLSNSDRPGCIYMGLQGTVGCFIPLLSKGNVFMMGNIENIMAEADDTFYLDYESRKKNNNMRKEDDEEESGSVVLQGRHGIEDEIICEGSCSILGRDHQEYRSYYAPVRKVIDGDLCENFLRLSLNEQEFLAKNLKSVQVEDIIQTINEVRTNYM

[4] = target: T3, Rse1 (S. cerevisiae (endogenous in yeast whole-cell extract)); assay: cryo-EM structure; U257A pre-A complex assembled in yeast extract on U257A Act pre-mRNA; 10.4 Å overall, U1 7.5 Å, U2 13 Å; the ΔBS-A pre-A model fitted into the density

Measured: binding

B1: Prp40 (protein, UniProt P33203 1-583)
chain: MSIWKEAKDASGRIYYYNTLTKKSTWEKPKELISQEELLLRENGWKAAKTADGKVYYYNPTTRETSWTIPAFEKKVEPIAEQKHDTVSHAQVNGNRIALTAGEKQEPGRTINEEESQYANNSKLLNVRRRTKEEAEKEFITMLKENQVDSTWSFSRIISELGTRDPRYWMVDDDPLWKKEMFEKYLSNRSADQLLKEHNETSKFKEAFQKMLQNNSHIKYYTRWPTAKRLIADEPIYKHSVVNEKTKRQTFQDYIDTLIDTQKESKKKLKTQALKELREYLNGIITTSSSETFITWQQLLNHYVFDKSKRYMANRHFKVLTHEDVLNEYLKIVNTIENDLQNKLNELRLRNYTRDRIARDNFKSLLREVPIKIKANTRWSDIYPHIKSDPRFLHMLGRNGSSCLDLFLDFVDEQRMYIFAQRSIAQQTLIDQNFEWNDADSDEITKQNIEKVLENDRKFDKVDKEDISLIVDGLIKQRNEKIQQKLQNERRILEQKKHYFWLLLQRTYTKTGKPKPSTWDLASKELGESLEYKALGDEDNIRRQIFEDFKPESSAPTAESATANLTLTASKKRHLTPAVELDY
binds: [1] | [2] | [3] | [4]
